The assay has as its target T1, C1INH (human (endogenous in normal human serum)) (UniProt P05155).
T1 sequence: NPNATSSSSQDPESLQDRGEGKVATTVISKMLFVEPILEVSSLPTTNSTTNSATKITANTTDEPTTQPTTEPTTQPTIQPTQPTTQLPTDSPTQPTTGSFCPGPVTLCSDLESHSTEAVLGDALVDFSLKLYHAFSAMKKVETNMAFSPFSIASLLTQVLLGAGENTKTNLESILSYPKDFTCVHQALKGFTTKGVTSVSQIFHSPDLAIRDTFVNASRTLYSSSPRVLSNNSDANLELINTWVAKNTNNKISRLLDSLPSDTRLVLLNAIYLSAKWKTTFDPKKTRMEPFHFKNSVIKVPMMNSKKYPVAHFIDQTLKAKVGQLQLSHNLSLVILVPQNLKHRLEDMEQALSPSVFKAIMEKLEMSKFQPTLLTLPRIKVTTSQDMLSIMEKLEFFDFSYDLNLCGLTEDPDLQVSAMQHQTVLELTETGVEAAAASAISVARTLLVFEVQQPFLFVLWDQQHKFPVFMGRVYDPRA
Description: ELISA; MASP-1/C1-INH ELISA kit (HycultBiotech) detecting the complex in normal human serum exposed to vehicle or AmV (10-1000 µg/mL, 30-120 min, 37°C), reactions stopped with 20 mM EDTA, serum diluted 1/100.

These are yes or no findings as the source states them, for the method shown. A result given as binding can be weak or reduced; the word gives no strength.

Take “MBL-associated serine protease 1 (MASP1) (human (endogenous in normal human serum)) (enzyme)”: the binding result is listed as “binds”.

The values are drawn from article PMC11598452.
